{"source": "patent US8697747B2", "about": "“Enhancing coagulation or reducing fibrinolysis” (THe UAB Research Foundation, priority 2009, dated 2014)", "key": {"normal plasma thrombi": {"tested_on": "normal plasma thrombi", "experiment": "Electron microscopy of thrombus ultrastructure, normal plasma", "set-up": "species or system human", "details": "100 μM CORM-2 vs 0 μM"}, "[1]": {"tested_on": "FXIII-deficient plasma thrombi", "experiment": "Electron microscopy of thrombus ultrastructure, FXIII-deficient plasma", "set-up": "species or system human", "details": "100 μM CORM-2 vs 0 μM"}, "[2]": {"details": "highest magnification (60,000-fold)"}}, "data": [{"molecule": "[C-]#[O+].[C-]#[O+].[C-]#[O+].[C-]#[O+].[C-]#[O+].[C-]#[O+].[Cl][Ru][Cl].[Cl][Ru][Cl]", "note": "[CORM-2, tricarbonyldichlororuthenium (II) dimer]", "values": [{"measurement": "thin fiber architecture in thrombus ultrastructure", "setting": "normal plasma thrombi; [2]", "result": "no remarkable difference in the thin fiber architecture"}, {"measurement": "thick fiber formation in thrombus ultrastructure", "setting": "normal plasma thrombi; low magnification (5,000-fold)", "result": "a reduction in thick fiber formation"}, {"measurement": "thin fiber architecture in thrombus ultrastructure", "setting": "[1]; [2]", "result": "an increase in the thin fiber architecture"}, {"measurement": "thick and fine fiber content in thrombus ultrastructure", "setting": "[1]; low magnification (5,000-fold)", "result": "a reduction in thick fiber formation coupled with enhanced fine fiber content"}]}]}
